# Source: the supplement of paper PMC5949888
# ± gives the standard deviation of the averaged measurements. Most values lie at the floor of the assay. Slopes are relative: functional sequences can read slightly below zero.
# Tested on: Saccharomyces cerevisiae PS128 hsf1 delta, HSF1(1-493) fusion
# Test: growth estimate (transactivation domain function in HSF1 fusion, heat-shock survival) (a.u. (slope of normalised read count over time)); higher = stronger growth at 37°C, i.e. more transactivation activity
# Details: library: random library
# Experimental: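 Random 60-nt DNA library encoding peptides of up to 20 aa, fused to the C-terminus of yeast HSF1 residues 1-493 (C-terminal TAD deleted) and expressed from the native HSF1 promoter on a CEN plasmid in hsf1-deleted S. cerevisiae PS128. Cells were selected at 37°C on -trp 5-FOA plates for 0, 2, 4, 6 and 8 days and amplicons were sequenced. Growth estimate is the slope of a robust linear fit of total-sum-normalised read counts (normalised to the first time point) over time, using at least 2 replicates. Sequences are classed functional (TAD activity) above a threshold of -0.13, set from stop-codon control sequences.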
row,Substance,growth estimate
1,CRGD,< -0.25
2,CRGFREGS,< -0.25
3,CRGGCWDNLSTRPEID,< -0.25
4,CRGGGATQFIWLCYR,< -0.25
5,CRGHGLVPVRWLCRRW,< -0.25
6,CRGPPSTGNGGTALLGFSQP,< -0.25
7,CRGRNVGKRT,-0.237
8,CRHDSR,-0.231
9,CRKARC,< -0.25
10,CRKDVDKRRLPDVQ,< -0.25
11,CRKGAEVPRWCPARATLLLR,< -0.25
12,CRLLP,< -0.25
13,CRLMFPLIPAGEVRELQRAS,< -0.25
14,CRLSSCILLRADLPCKYHGA,< -0.25
15,CRLWSIRLLAFGKRQARVIR,< -0.25
16,CRPATRAAPPSRLVDRVKAR,< -0.25
17,CRPVVTSRHETMRC,< -0.25
18,CRQYSPG,< -0.25
19,CRRQRRACLATIRWLETSHN,< -0.25
20,CRRSLQHTAQSITDRKCVAH,< -0.25
21,CRRWQA,< -0.25
22,CRSGARKAAGDCV,< -0.25
23,CRSNWHCQRQRRKVIISARN,< -0.25
24,CRSQS,< -0.25
25,CRVNTSVIWGRTRRLRRYGL,< -0.25

row,Substance,growth estimate
1,CRWLLGRTNGTVHPETC,< -0.25
2,CSDGSLTWTRKPAHGIFDRD,< -0.25
3,CSFFLTGAVLHGYAGPIVSA,-0.243
4,CSFGPL,< -0.25
5,CSGWARLVASDSLQAPRPGY,< -0.25
6,CSIFLLCSYCATWTYMVRAK,< -0.25
7,CSIPWGVRGYVQPMDSGFDG,0.066
8,CSLAPFLVRVGVLRKNI,< -0.25
9,CSLFVLT,< -0.25
10,CSLGSMDTERTRRQ,< -0.25
11,CSLIKIVMSTASTGGKGRDG,< -0.25
12,CSLRPKCPVMTRRTIYGSSS,< -0.25
13,CSLSIRLDSNVGPSSGRSTT,< -0.25
14,CSMGAGSASRGSHVGKYHMT,< -0.25
15,CSRRLCYHVTTPTHRNHTAI,< -0.25
16,CSRTRADPARLRMWKS,< -0.25
17,CSS,-0.241 ± 0.012
18,CSSC,< -0.25
19,CSSKSL,< -0.25
20,CSSVSMV,< -0.25
21,CSTCTRLRPVEEHPESGWRH,< -0.25
22,CSTP,< -0.25
23,CSVGKPWVSSGSNSGSVRGS,< -0.25
24,CSWSCSMGEYGLCVAFL,< -0.25
25,CTADSPYLRMGAQQLKCVES,< -0.25

# As a working copy, some entries already given.
row,Substance,growth estimate
21,CRRWQA,< -0.25
22,CRSGARKAAGDCV,< -0.25

# (list continues)

row,Substance,growth estimate
1,CTAGVR,< -0.25
2,CTAMFALIIVARRARNAHTS,< -0.25
3,CTAWCEVGKYHHDTV,< -0.25
4,CTCFSAVIHER,< -0.25
5,CTDISGLRVRLWSEHGS,< -0.25
6,CTDPFKEYA,< -0.25
7,CTDY,< -0.25
8,CTESGPQAALRSCQRVVHR,< -0.25
9,CTFHGDPASDRRR,< -0.25
10,CTGASRVIISDSSTRPSVSR,< -0.25
11,CTHPNKTVKRELFG,< -0.25
12,CTICIAIARARRPLYTETFF,< -0.25
13,CTIG,< -0.25
14,CTIRPSRA,< -0.25
15,CTKSSSIMCPRSCLCGNGWI,< -0.25
16,CTLF,< -0.25
17,CTLLMFIFAFLQCSAVLVSP,< -0.25
18,CTLR,< -0.25
19,CTLTSGFWNLRLWTDDEGFS,< -0.25
20,CTPPIQRCIMISRVWVAEAL,< -0.25
21,CTQQGKDSMGCRCGAPSSKV,< -0.25
22,CTRCF,< -0.25
23,CTRLVLDKKYFRAPLLIPNP,< -0.25
24,CTSFPSDARILVLDPDN,< -0.25
25,CTSGDGTLDKVFQKANDGCA,< -0.25

row,Substance,growth estimate
1,CTSTAEQ,< -0.25
2,CTTRMF,< -0.25
3,CTTS,< -0.25
4,CTVRPVPMVRYTTAL,< -0.25
5,CTVYRAVPCRAIGWRWLCSV,< -0.25
6,CTWDTEAPRFVRVSRKANQL,< -0.25
7,CTYGNYLVYIGVTAISYLYP,< -0.25
8,CVAKYIAYQNVALGRLSSLC,< -0.25
9,CVEPSGNDR,< -0.25
10,CVFEQIGSSVTVTHGPSEER,< -0.25
11,CVGETRTGSKVATVVGITGF,< -0.25
12,CVGVWSLEDGWQRLGKKEA,< -0.25
13,CVGWKTARPGARVDSSGGVS,< -0.25
14,CVHAAK,-0.0867
15,CVLGGLNIVLVYDEGTSQNP,< -0.25
16,CVLLSRYKEISQVLLVYMAK,< -0.25
17,CVLRTW,< -0.25
18,CVLSGTCEFYFRSV,-0.231
19,CVMSPLERHSQPDKSSQSAD,< -0.25
20,CVQICRRNEIS,< -0.25
21,CVSEGSRHG,< -0.25
22,CVSLRQTPTCSNQNRRPNSL,< -0.25
23,CVSSANARPPRYNNAP,< -0.25
24,CVSSQSNTDNRARTEFGAVV,< -0.25
25,CVTYRDDGMTQIGGYGCQIP,< -0.25

row,Substance,growth estimate
1,CVYLITTEEEATS,< -0.25
2,CWFE,< -0.25
3,CWFLQFSVNCRRSVDASHTT,< -0.25
4,CWIY,< -0.25
5,CWKLTSYNYSGWPSPRPLSG,-0.0944
6,CWLTG,< -0.25
7,CWVGSSVPECL,< -0.25
8,CWVQPFTVASGRFVTPSEAG,< -0.25
9,CYCYVVSR,< -0.25
10,CYFEEAPLFMDWQVW,< -0.25
11,CYLGISSLITCVGSTRVFDK,< -0.25
12,CYLHASTLASVTNPLSYISG,< -0.25
13,CYLRACRS,< -0.25
14,CYPR,< -0.25
15,CYRTVGFTRAMHTHQWQGRL,< -0.25
16,CYSTSFATRTVSVQWTSWVV,< -0.25
17,DADRQRDPYRALDEQSRGGA,< -0.25
18,DAGLRGSEPPGPH,< -0.25
19,DAGLRHRRRTFPSFHLLHSA,< -0.25
20,DAGLSAGPS,< -0.25
21,DAHPQVQVEDFFDVRDT,-0.0522
22,DAI,< -0.25
23,DAIVAGAAHNDPDSSLN,< -0.25
24,DAPTVWPLSGRV,< -0.25
25,DAQMGLLVPSRQGKIGSFRE,< -0.25

# Random excerpt: 6 entries already listed, in no set order.
row,Substance,growth estimate
15,CVLGGLNIVLVYDEGTSQNP,< -0.25
22,CTRCF,< -0.25
5,CTVYRAVPCRAIGWRWLCSV,< -0.25
17,DADRQRDPYRALDEQSRGGA,< -0.25
1,CRGD,< -0.25
2,CTTRMF,< -0.25

# The list goes on:

row,Substance,growth estimate
1,DAQSISAHRLHNPG,-0.245
2,DARPVVTRCNRLT,< -0.25
3,DASTSLQQVHFF,< -0.25
4,DATCLRGSSHYVALAIRL,< -0.25
5,DAVK,< -0.25
6,DAYA,-0.248
7,DAYPLWEQEEVSRMPNSLCA,< -0.25
8,DAYRFGLHTASSVRGSENEE,< -0.25
9,DCATVPLCHFTADDCRRAFH,< -0.25
10,DCAY,< -0.25
11,DCMLRHMGCVYRATRSHRMQ,-0.243
12,DCQAGSLTLA,< -0.25
13,DCRD,-0.168
14,DCRTGSA,< -0.25
15,DCSAKHESMRNQVYKGSWCH,< -0.25
16,DCSVPVTYCESRVAKRTRVA,< -0.25
17,DCVPSVVNPSSADTNVCRPC,< -0.25
18,DDAK,< -0.25
19,DDFR,< -0.25
20,DDGGSECTSIRCLYSTRVFV,< -0.25
21,DDLRRAEHSAAQRLVYLVQS,< -0.25
22,DDR,< -0.25
23,DDWLIYILRDWPGNKDAHCG,< -0.25
24,DDYVIGGHAGTYIGRAVIKY,< -0.25
25,DEASYVRDVSNHCRHGFWHD,< -0.25

# Shown tab-delimited: part of the list above.
row	Substance	growth estimate
14	DCRTGSA	< -0.25
15	DCSAKHESMRNQVYKGSWCH	< -0.25
16	DCSVPVTYCESRVAKRTRVA	< -0.25
17	DCVPSVVNPSSADTNVCRPC	< -0.25
18	DDAK	< -0.25

# Next part

row,Substance,growth estimate
1,DEAYVHRCWLCPGMEERYLC,< -0.25
2,DEDYSGCIGGRIIAIVRIRH,< -0.25
3,DEEDGATGL,< -0.25
4,DEGAPDPALR,< -0.25
5,DEGGLSIGIIR,< -0.25
6,DEHVISFPSRLKKNT,< -0.25
7,DERGTLSDPPVFCFGHQRPK,< -0.25
8,DESRRRATSVLLRVPLQTLR,< -0.25
9,DETKRLRIVTLCSKSDSIQA,< -0.25
10,DETYFFGRLA,< -0.25
11,DEVLYGC,< -0.25
12,DFA,< -0.25
13,DFAHQD,< -0.25
14,DFAIVSTSAVKRNNCRAPAP,< -0.25
15,DFCKSREKAVCIRPDI,< -0.25
16,DFDG,< -0.25
17,DFEECTPLVISP,< -0.25
18,DFEPLVIQGVAGANIYAIWR,< -0.25
19,DFFWI,< -0.25
20,DFGGQ,< -0.25
21,DFIGVVPGGSISTHCYPPIL,< -0.25
22,DFLRYSATIQR,< -0.25
23,DFMRFGSTVDFHDRAFGMLE,< -0.25
24,DFNKPTDAG,0.207
25,DFQQSCCDGARIWPYGLSHP,< -0.25

row,Substance,growth estimate
1,DFRWRMNCALGATVFYRVSG,< -0.25
2,DFSGKRIPGRGVA,< -0.25
3,DFVGDGC,< -0.25
4,DFVLSWYHCGESREY,< -0.25
5,DFYEGGWEGLIDGPTRI,< -0.25
6,DGALFCLSMNCSDRTRLCCV,< -0.25
7,DGATGFEGAVRGSL,< -0.25
8,DGCTRCAFGRV,< -0.25
9,DGDYDRFK,< -0.25
10,DGGARGRGC,< -0.25
11,DGGNMGSTVWS,< -0.25
12,DGGSNFAFSMYVSAMLSSSS,< -0.25
13,DGGVAADAYMTRADV,< -0.25
14,DGKLGKTRFQNPGTRRRPCT,< -0.25
15,DGLWTLYAGRGNRRRSVFKR,< -0.25
16,DGMACASCDNHPNRMNESMP,< -0.25
17,DGNDD,< -0.25
18,DGNGAHSANTSSASRLDK,< -0.25
